Assay results from article PMC7619307, “The Golgi vesicle tether p115 can bind directly to the ER exit site organiser Sec16A” (Journal of cell science, 2026).

Protein sequences, listed by entry. Tags and fused reporters are not part of them.
UniProt Q15154: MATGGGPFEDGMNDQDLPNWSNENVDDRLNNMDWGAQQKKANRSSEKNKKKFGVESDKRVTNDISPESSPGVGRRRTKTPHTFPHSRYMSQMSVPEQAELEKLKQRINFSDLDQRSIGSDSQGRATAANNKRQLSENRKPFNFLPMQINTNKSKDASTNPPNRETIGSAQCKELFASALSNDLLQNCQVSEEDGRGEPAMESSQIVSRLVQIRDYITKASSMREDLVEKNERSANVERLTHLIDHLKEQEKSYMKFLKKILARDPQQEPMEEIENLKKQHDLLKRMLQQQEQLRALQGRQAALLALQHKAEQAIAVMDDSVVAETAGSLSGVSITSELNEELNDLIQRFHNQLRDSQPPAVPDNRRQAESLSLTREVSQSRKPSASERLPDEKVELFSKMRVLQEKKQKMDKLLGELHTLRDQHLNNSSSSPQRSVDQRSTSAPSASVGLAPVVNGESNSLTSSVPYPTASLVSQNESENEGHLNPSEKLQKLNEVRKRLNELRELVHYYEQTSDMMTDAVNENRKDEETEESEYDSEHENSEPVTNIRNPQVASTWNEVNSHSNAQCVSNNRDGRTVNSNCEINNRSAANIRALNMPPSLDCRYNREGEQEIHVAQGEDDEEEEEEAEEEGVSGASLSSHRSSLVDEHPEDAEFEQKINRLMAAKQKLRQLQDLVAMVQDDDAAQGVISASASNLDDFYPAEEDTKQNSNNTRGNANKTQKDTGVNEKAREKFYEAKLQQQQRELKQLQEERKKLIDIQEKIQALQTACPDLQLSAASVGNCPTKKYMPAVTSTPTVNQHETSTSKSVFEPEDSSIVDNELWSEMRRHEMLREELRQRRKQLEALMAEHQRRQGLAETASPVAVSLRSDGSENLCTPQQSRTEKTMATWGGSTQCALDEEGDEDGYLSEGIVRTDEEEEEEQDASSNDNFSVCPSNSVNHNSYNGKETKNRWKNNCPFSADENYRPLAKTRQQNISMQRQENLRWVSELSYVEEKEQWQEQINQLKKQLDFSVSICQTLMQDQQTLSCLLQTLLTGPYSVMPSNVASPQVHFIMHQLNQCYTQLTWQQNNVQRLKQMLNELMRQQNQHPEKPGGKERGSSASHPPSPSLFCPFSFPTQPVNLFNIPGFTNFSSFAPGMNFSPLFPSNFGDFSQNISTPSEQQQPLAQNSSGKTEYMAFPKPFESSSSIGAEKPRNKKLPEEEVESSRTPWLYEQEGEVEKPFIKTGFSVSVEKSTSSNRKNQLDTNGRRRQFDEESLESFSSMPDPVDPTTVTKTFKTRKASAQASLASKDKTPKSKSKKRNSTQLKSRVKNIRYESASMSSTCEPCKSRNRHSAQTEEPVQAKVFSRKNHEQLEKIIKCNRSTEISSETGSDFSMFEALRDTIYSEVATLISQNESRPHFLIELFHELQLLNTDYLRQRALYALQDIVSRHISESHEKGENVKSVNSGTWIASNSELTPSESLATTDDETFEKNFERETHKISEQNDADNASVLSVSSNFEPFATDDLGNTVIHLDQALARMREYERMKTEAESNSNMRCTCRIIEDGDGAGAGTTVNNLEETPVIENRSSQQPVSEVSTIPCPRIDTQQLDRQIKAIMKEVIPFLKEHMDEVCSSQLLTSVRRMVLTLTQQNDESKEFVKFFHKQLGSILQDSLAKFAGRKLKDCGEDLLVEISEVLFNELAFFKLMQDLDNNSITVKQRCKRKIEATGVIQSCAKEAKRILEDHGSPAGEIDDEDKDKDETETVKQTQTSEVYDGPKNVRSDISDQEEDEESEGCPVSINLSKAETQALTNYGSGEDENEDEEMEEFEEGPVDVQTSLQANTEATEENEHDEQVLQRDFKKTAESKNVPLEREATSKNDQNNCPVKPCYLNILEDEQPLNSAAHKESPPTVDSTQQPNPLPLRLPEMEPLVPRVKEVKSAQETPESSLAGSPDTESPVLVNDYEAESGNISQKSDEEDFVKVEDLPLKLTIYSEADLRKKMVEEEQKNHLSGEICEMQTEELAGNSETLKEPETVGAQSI
UniProt Q96SN8: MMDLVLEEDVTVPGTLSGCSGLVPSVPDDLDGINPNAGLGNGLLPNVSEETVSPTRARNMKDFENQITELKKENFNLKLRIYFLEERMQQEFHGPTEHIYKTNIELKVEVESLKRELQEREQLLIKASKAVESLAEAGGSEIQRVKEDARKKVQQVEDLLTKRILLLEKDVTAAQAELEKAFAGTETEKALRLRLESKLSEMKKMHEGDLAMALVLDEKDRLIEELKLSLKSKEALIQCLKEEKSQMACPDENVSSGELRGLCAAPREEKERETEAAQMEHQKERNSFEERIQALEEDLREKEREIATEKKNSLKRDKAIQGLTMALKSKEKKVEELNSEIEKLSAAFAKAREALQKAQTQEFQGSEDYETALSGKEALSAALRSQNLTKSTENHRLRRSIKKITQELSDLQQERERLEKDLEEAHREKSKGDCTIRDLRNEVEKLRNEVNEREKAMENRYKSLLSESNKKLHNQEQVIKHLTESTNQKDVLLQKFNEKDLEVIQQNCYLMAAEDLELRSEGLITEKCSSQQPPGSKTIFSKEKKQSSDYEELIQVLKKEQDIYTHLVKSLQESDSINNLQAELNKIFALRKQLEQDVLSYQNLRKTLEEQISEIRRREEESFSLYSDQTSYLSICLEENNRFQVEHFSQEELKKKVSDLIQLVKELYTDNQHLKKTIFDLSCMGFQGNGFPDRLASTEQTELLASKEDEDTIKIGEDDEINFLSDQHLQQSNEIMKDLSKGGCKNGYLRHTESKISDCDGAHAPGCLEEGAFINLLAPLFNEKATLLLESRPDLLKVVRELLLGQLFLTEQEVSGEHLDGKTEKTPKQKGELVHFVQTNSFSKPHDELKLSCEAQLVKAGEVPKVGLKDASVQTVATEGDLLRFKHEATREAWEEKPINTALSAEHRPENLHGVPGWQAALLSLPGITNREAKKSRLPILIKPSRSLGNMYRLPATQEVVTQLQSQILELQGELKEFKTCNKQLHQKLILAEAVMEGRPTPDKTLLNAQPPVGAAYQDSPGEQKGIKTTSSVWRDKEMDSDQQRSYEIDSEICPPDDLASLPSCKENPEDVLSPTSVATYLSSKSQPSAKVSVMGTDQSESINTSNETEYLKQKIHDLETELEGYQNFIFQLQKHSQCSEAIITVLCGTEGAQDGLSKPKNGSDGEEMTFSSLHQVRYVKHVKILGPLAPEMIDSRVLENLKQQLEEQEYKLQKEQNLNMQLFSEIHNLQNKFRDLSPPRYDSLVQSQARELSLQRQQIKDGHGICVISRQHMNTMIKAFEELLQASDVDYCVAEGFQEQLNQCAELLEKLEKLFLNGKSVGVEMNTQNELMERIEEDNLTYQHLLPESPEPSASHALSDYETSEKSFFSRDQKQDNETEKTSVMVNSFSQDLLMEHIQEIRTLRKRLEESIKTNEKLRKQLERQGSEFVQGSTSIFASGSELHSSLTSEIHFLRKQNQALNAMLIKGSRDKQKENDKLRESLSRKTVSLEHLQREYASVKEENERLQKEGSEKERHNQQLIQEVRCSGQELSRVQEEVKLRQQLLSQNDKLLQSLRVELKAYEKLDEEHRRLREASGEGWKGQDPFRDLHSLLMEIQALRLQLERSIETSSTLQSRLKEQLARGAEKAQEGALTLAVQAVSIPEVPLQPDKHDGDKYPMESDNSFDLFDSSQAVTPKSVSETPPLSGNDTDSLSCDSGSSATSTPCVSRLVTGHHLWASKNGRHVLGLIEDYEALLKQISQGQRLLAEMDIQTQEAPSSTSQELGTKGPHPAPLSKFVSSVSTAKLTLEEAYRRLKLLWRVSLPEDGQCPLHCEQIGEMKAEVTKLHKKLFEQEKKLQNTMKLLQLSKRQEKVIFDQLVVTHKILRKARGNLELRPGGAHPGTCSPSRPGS
UniProt Q9BQQ3: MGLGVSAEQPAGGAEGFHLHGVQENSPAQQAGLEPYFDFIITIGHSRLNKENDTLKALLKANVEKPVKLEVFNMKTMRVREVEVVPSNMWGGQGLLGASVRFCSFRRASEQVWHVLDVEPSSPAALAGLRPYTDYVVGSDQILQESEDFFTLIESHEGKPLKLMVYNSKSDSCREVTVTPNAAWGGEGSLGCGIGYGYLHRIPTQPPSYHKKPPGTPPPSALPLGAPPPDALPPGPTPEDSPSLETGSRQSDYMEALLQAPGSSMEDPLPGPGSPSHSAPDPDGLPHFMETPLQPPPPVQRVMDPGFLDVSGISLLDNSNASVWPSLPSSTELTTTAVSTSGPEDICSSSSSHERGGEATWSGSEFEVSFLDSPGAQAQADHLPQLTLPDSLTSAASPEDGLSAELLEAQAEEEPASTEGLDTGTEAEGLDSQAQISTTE

T1: full-length p115–GFP (wild type) (human) (UniProt O60763)
T1 sequence: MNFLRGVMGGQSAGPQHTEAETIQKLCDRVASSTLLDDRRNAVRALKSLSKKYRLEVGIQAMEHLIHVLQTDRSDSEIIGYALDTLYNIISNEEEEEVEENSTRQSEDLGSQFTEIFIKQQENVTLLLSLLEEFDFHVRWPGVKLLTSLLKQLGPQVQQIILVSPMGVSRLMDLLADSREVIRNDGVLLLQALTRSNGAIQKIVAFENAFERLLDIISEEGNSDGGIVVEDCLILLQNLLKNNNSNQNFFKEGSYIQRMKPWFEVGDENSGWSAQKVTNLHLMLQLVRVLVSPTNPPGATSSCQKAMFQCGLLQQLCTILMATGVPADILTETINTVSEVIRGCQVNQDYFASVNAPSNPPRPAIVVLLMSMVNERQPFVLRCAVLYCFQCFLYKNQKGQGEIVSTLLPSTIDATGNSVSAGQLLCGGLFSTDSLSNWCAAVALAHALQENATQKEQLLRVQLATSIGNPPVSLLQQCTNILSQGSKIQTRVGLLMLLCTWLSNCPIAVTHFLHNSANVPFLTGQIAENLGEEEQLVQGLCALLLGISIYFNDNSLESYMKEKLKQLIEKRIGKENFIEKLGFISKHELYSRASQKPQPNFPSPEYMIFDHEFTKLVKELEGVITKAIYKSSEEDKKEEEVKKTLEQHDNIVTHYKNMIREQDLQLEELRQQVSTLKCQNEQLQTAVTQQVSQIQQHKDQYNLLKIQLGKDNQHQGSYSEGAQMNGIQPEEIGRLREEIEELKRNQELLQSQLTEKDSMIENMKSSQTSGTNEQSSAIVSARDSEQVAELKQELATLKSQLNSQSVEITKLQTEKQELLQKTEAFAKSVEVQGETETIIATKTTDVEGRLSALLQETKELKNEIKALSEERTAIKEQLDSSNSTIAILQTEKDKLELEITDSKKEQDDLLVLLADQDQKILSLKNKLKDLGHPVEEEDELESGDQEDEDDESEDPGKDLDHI

T2: full-length p115–GFP with the Q462D mutation (human) (UniProt O60763)
T2 sequence: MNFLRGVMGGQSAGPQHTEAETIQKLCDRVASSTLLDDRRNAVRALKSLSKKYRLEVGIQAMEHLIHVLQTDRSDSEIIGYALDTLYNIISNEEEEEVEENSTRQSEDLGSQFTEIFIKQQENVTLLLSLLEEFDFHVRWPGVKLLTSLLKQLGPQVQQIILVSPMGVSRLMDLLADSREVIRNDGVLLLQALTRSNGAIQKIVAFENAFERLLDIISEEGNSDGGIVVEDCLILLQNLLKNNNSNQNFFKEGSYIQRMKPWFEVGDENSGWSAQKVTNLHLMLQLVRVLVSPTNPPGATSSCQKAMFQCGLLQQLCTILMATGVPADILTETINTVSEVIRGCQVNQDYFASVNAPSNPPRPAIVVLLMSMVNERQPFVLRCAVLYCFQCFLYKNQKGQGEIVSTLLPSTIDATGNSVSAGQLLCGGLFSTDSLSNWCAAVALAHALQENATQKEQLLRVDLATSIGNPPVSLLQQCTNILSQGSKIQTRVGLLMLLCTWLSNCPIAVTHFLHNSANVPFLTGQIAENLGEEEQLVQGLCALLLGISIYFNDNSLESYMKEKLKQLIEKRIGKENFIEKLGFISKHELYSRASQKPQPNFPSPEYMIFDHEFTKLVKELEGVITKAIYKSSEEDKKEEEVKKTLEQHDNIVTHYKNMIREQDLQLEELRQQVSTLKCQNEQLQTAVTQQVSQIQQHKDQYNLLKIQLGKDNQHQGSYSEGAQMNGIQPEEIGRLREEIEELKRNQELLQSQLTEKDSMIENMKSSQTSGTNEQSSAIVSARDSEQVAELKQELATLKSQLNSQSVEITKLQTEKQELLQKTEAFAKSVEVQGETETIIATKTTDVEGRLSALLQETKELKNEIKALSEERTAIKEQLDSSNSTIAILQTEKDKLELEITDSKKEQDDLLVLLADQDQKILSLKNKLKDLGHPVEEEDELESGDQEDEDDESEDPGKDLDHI


Columns and labels:
Assay in all cases: affinity purification with mass spectrometry; GFP-tagged p115 forms precipitated on GFP-Trap agarose from transfected HEK293T lysate (10 mM Tris-HCl pH 7.5, 150 mM NaCl, 0.5 mM EDTA, 0.5% Triton X-100; washes with 300 mM NaCl; 4°C); label-free mass spectrometry, biological triplicates; compared with GFP alone, head against tail, or wild type against Q462D
[1] = biological target: T1, full-length p115–GFP (wild type) (human)
[2] = biological target: T2, full-length p115–GFP with the Q462D mutation (human)
GFP–p115-tail (human) = biological target: GFP–p115-tail (human)

| Molecule | binding [1] | binding [2] | binding (GFP–p115-tail (human)) |
| --- | --- | --- | --- |
| AKAP9 (from UniProt Q99996 1-3907) | binds | – | – |
| PCM1 (from UniProt Q15154 1-2024) | binds | – | – |
| GM130 (protein, UniProt Q08379 1-1002) MWPQPRLPPRPAMSEETRQSKLAAAKKKLREYQQRNSPGVPTGAKKKKKIKNGSNPETTTSGGCHSPEDTPKDNAATLQPSDDTVLPGGVPSPGASLTSMAASQNHDADNVPNLMDETKTFSSTESLRQLSQQLNGLVCESATCVNGEGPASSANLKDLESRYQQLAVALDSSYVTNKQLNITIEKLKQQNQEITDQLEEEKKECHQKQGALREQLQVHIQTIGILVSEKAELQTALAHTQHAARQKEGESEDLASRLQYSRRRVGELERALSAVSTQQKKADRYNKELTKERDALRLELYKNTQSNEDLKQEKSELEEKLRVLVTEKAGMQLNLEELQKKLEMTELLLQQFSSRCEAPDANQQLQQAMEERAQLEAHLGQVMESVRQLQMERDKYAENLKGESAMWRQRMQQMSEQVHTLREEKECSMSRVQELETSLAELRNQMAEPPPPEPPAGPSEVEQQLQAEAEHLRKELEGLAGQLQAQVQDNEGLSRLNREQEERLLELERAAELWGEQAEARRQILETMQNDRTTISRALSQNRELKEQLAELQSGFVKLTNENMEITSALQSEQHVKRELGKKLGELQEKLSELKETVELKSQEAQSLQQQRDQYLGHLQQYVAAYQQLTSEKEVLHNQLLLQTQLVDQLQQQEAQGKAVAEMARQELQETQERLEAATQQNQQLRAQLSLMAHPGEGDGLDREEEEDEEEEEEEAVAVPQPMPSIPEDLESREAMVAFFNSAVASAEEEQARLRGQLKEQRVRCRRLAHLLASAQKEPEAAAPAPGTGGDSVCGETHRALQGAMEKLQSRFMELMQEKADLKERVEELEHRCIQLSGETDTIGEYIALYQSQRAVLKERHREKEEYISRLAQDKEEMKVKLLELQELVLRLVGDRNEWHGRFLAAAQNPADEPTSGAPAPQELGAANQQGDLCEVSLAGSVEPAQGEAREGSPRDNPTAQQIMQLLREMQNPRERPGLGSNPCIPFFYRADENDEVKITVI | binds | binds | binds |

Now from value to molecule:

| binding [1] | binding [2] | binding (GFP–p115-tail (human)) | Molecule |
| --- | --- | --- | --- |
| binds | – | – | CDK5RAP2 (from UniProt Q96SN8 1-1893) |
| binds | – | – | GORASP1 (from UniProt Q9BQQ3 1-440) |
| no binding | – | – | Sec31 (human (endogenous in HEK293T)) |

Results are given in words; binding and its absence hold for the method and conditions named. Binding seen in cells or lysates may run through a third protein. Here binding means that the protein was enriched with, or labelled near, the bait; the list need not be complete. For some assays here: A no says only that the protein was not detected with the bait. For some assays here: Tags and fused reporters may be left off the sequences shown.
